Amino acid sequences for entries named in this document (tags omitted). A change or cut given only in a name is not applied to a line headed by its entry.
UniProt P00573: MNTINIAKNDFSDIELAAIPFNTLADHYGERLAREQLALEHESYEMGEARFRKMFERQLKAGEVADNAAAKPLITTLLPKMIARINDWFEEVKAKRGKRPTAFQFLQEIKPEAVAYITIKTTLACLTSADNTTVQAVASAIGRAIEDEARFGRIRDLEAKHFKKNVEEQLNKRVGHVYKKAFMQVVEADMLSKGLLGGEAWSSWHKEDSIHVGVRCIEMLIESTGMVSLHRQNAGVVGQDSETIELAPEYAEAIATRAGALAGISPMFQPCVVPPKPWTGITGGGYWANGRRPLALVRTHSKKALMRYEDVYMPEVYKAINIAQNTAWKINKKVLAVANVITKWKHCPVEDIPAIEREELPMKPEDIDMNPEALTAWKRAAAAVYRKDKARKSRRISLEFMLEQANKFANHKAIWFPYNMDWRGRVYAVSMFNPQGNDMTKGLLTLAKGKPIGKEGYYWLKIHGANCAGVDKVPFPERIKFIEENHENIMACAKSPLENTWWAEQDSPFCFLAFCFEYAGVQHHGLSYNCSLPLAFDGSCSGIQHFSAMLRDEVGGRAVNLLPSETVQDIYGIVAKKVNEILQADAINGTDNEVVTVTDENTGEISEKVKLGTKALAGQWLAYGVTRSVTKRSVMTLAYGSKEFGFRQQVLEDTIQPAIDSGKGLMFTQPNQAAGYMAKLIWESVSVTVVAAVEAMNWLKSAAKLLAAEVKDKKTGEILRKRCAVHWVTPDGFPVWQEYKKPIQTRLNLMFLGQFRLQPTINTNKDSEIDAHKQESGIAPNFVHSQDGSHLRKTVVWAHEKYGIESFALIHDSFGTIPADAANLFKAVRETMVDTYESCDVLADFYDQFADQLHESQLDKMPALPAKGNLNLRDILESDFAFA

In patent US20220259645:

Molecular target: T7 RNA polymerase (T7 RNAP) (bacteriophage T7) (UniProt P00573)
Experiment: activity assay
Settings: purified recombinant protein
[1] = templated propagation at low T7 RNAP

| Sequence | activity on this sequence [1] | activity on this sequence (failed to instruct efficient RNA synthesis without 3' extra base) |
| --- | --- | --- |
| CCCAAUAUCAUCAAUUGCUGACGAAGAUGAUAUUGAUAAUAUCAUCUUCGUCAGCAAUUGAUGAUAUU [Round 2B RNA species] | active |  |
| CCCCAAAAUUUCAAGAUCAGGGCUUGAAAUUUUGUAAAAUUUCAAGCCCUGAUCUUGAAAUUUUCC [Y2 RNA C strand (RNA species 12.1)] |  | less active |
| GGAAAAUCAAUGACUGGUCAAUCUCAUUGAUUUUUGAAAUCAAUGAGAUUGACCAGUCAUUGAUUUU [Round 2C RNA species] | active |  |
| GGAAAAUUUCAAACAUUAUGUUGUAAUUUGUUUGAAAAUUUCAAACAAAUUACAACAUAAUGUUUGAAAUUUUGGGGGGAAAAU [Round 2A RNA species] | active |  |

A weaker result is weaker than the reference pair of the same experiment.
